Measurements reported in PubChem BioAssay AID1259254 (NCATS, 2017)
Shown is an unselected part of about 59,000 reagents tested. About 1,550 of them (2.6%) were called active. 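G2 share is only a proxy for re-replication; each gene was hit by three separate siRNAs, and active genes were retested.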 Reagents against one gene are numbered here. Further read-outs or replicates are left out here. The record does not give: the amount of reagent.

- Test: 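Gene knock-downs that lead to re-replication, shown by excess G2 DNA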 (primary screen)
- Cells: human HCT116 colorectal cancer cells
- Knock-down reagent: single siRNA against human genes
- Time to read-out: 3 days
- Read-out: 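Nuclei stained with Hoechst and imaged; cell-cycle phase assigned by DNA content; G2 share scaled per plate, non-targeting siRNA 0%, GMNN siRNA 100%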
- Direction: G2 robust z-score: higher = more G2 cells, more excess DNA replication
- Call rule: 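Active siRNAs have a G2 robust z of 5 or more median absolute deviations over the median, which in these data means about 38% or higher of GMNN control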

G2 robust z-score, by target gene and reagent
LOC645967: #1 0.272 inactive; #2 -0.503 inactive; #3 -0.801 inactive
C9orf57 (chromosome 9 open reading frame 57): #1 1.63 inactive; #2 10.3 active; #3 -0.59 inactive
COPE (coat protein complex I subunit epsilon): #1 0.106 inactive; #2 0.395 inactive; #3 -0.71 inactive
PA2G4 (proliferation-associated 2G4): #1 -1.05 inactive; #2 -0.904 inactive; #3 0.386 inactive
NANP (N-acetylneuraminic acid phosphatase): #1 -0.105 inactive; #2 -0.46 inactive; #3 -0.0467 inactive
YWHAQ: #1 1.35 inactive; #2 -1.17 inactive; #3 -1.01 inactive
BSDC1 (BSD domain containing 1): #1 0.272 inactive; #2 -0.847 inactive; #3 -0.539 inactive
MARCHF2 (membrane associated ring-CH-type finger 2): #1 8.79 active; #2 -0.537 inactive; #3 -0.571 inactive
BANK1 (B cell scaffold protein with ankyrin repeats 1): #1 3.34 inactive; #2 -0.895 inactive; #3 0.646 inactive
TARS2 (threonyl-tRNA synthetase 2, mitochondrial): #1 -1.03 inactive; #2 0.918 inactive; #3 0.711 inactive
LAPTM4B (lysosomal protein transmembrane 4 beta): #1 -0.579 inactive; #2 -0.999 inactive; #3 2.68 inactive
LINC00619 (long independently transcribed non-coding RNA 619): #1 1.58 inactive; #2 -0.904 inactive; #3 -0.177 inactive
UBLCP1 (ubiquitin like domain containing CTD phosphatase 1): #1 0.863 inactive; #2 -0.201 inactive; #3 0.623 inactive
SH3RF2 (SH3 domain containing ring finger 2): #1 -0.463 inactive; #2 0.737 inactive; #3 -0.658 inactive
FBXL16 (F-box and leucine rich repeat protein 16): #1 -0.307 inactive; #2 0.836 inactive; #3 0.966 inactive
SLFN14 (schlafen family member 14): #1 -0.452 inactive; #2 -0.289 inactive; #3 -0.0664 inactive
DUSP12 (dual specificity phosphatase 12): #1 -0.691 inactive; #2 -0.587 inactive; #3 0.433 inactive

10 entries already listed, ordered by “G2 robust z-score”, low to high.
target gene	siRNA no.	G2 robust z-score	Outcome
TARS2 (threonyl-tRNA synthetase 2, mitochondrial)	1	-1.03	inactive
LAPTM4B (lysosomal protein transmembrane 4 beta)	2	-0.999	inactive
LINC00619 (long independently transcribed non-coding RNA 619)	2	-0.904	inactive
LAPTM4B (lysosomal protein transmembrane 4 beta)	1	-0.579	inactive
LINC00619 (long independently transcribed non-coding RNA 619)	3	-0.177	inactive
TARS2 (threonyl-tRNA synthetase 2, mitochondrial)	3	0.711	inactive
UBLCP1 (ubiquitin like domain containing CTD phosphatase 1)	1	0.863	inactive
TARS2 (threonyl-tRNA synthetase 2, mitochondrial)	2	0.918	inactive
LINC00619 (long independently transcribed non-coding RNA 619)	1	1.58	inactive
LAPTM4B (lysosomal protein transmembrane 4 beta)	3	2.68	inactive

Next results follow:
G2 robust z-score, by target gene and reagent
CCDC85B (coiled-coil domain containing 85B): #1 -1.69 inactive; #2 -0.032 inactive; #3 -0.298 inactive
PSPC1 (paraspeckle component 1): #1 0.686 inactive; #2 -0.605 inactive; #3 -0.742 inactive
DLX3 (distal-less homeobox 3): #1 -0.101 inactive; #2 -0.357 inactive; #3 -0.758 inactive
LOC401068 (retired record): #1 -0.93 inactive; #2 -0.68 inactive; #3 0.325 inactive
WDR83OS (WD repeat domain 83 opposite strand): #1 -0.643 inactive; #2 3.74 inactive; #3 -0.923 inactive
SLC5A5: #1 1.59 inactive; #2 -0.562 inactive; #3 -0.427 inactive
ZNF674 (zinc finger protein 674): #1 -0.0292 inactive; #2 0.547 inactive; #3 -0.585 inactive
KLF7 (KLF transcription factor 7): #1 -0.101 inactive; #2 -0.164 inactive; #3 -0.499 inactive
LRCH4: #1 2.09 inactive; #2 4.15 inactive; #3 -0.739 inactive
NTNG2 (netrin G2): #1 0.806 inactive; #2 0.98 inactive; #3 1.45 inactive
MEAK7 (MTOR associated protein MEAK7): #1 -0.339 inactive; #2 -0.777 inactive; #3 -0.613 inactive
CDK13 (cyclin dependent kinase 13): #1 4.95 inactive; #2 -0.55 inactive; #3 3.15 inactive
